# Reference: the supplement of paper PMC8728848
# The other results are listed elsewhere or left out.
# Target: Neu5Gc(b2-6)Gal(b1-4)GlcNAc
# Assay: glycan array binding signal (z-score within array); higher = stronger binding
# Conditions: glycan notation: IUPAC condensed, linker removed
# Outline: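 Columns mapping to the same glycan were averaged after glycan names were converted to IUPAC-condensed notation. The data come from 3228 arrays in the Consortium for Functional Glycomics database, limited to those with an available protein sequence. Binding is reported as a within-array Z-score averaged across arrays of one protein sequence and across linkers.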
binder,measurement,value
Mermaid1 (Stilbonema majum) (protein) MGSSHHHHHHSSGLVPRGSHMAASGWLRSPQGTVVKLYRRSLSWSKADEFCKDVDGRLVVDRTADMHLFLIKNVLKEKKSRVWVGLRRTAPHSRTWIWSDGTRQNEDDLDANLWLRDEPNDAAGEEECALFMYSPWEKAWGLNDYLCRGGCRSYQFICEKWIR,glycan array binding signal (z-score),0.506
